# Values joined by “and” are separate entries in the source; they are usually repeats but may differ in a detail not shown here. Equal entries are not always repeated. The campaign covered roughly 300,000 compounds. About 5,400 (1.8%) were called active. The inconclusive results got no clear call from the source; some entries with a clear call stand among them for comparison. The call rests on the fitted dose curve; tested in HEK293 cells. Potencies of inconclusive entries are doubtful fits and often do not repeat.
# Test: qHTS for inhibitors of binding or entry into cells for Marburg Virus
# Settings: Marburg virus pseudotyped entry inhibition, cell reporter; series mostly up to 37.8 µM
# Potency means the concentration at half of the fitted maximal effect.
row,Compound,Potency
1,CCCCOc1ccccc1C1CC(=O)NC2=C1C(=O)CCC2 (stereo not drawn),"inconclusive: 11.2 µM [inhibitor, single point]"
2,CCN(CC)CCNC(=O)c1ccc(NC(=O)c2ccc(C(=O)c3ccccc3)cc2)cc1,"inconclusive: 10 µM [inhibitor, partial curve, poor fit]"
3,Cc1nn(CC(=O)N2N=C(C(F)F)CC2(O)C(F)F)c(C)c1[N+](=O)[O-] (stereo not drawn),inactive
4,Cc1cccc(C(=O)NNC(=O)Nc2ccccc2)c1,inactive
5,COc1ccc(S(=O)(=O)N2CCOC2CNC(=O)C(=O)NCc2ccccc2OC)cc1 (stereo not drawn),"inconclusive: 1.26 µM [inhibitor, single point]"
6,COC(=O)c1ccccc1NC(=O)CN1CCN(C23CC4CC(CC(C4)C2)C3)CC1,active: 5.8 µM
7,Cc1nc(N2CCOCC2)[nH]c(=O)c1C(O)C(Cl)(Cl)Cl (stereo not drawn),inactive
8,CCOCCCN1C(=O)C2C(C(=O)Nc3ccc(OCC)cc3)C3C=CC2(O3)C1C(=O)NC1CCCCC1 (stereo not drawn),inactive
9,O=C(CCCc1ccccc1)Nc1cccnc1Cl,"inconclusive: 2.82 µM [activator, partial curve, poor fit]"
10,COc1ccc(NS(=O)(=O)c2ccc(NC(=O)C3CCCO3)cc2)cc1 (stereo not drawn),"inconclusive: 5.01 µM [inhibitor, partial curve, poor fit]"
11,CC(C)Sc1ncnc2c1cnn2-c1ccccc1,"inconclusive: 0.631 µM [activator, single point]"
12,N/C(=N\OC(=O)c1cc([N+](=O)[O-])ccc1Cl)c1ccccn1,"inconclusive: 17.8 µM [inhibitor, single point]"
13,C=CCc1ccc(OCCOc2cccc(/C=N/n3cnnc3)c2)c(OC)c1,"inconclusive: 3.55 µM [inhibitor, partial curve, poor fit]"
14,CN1CCC(=NNC(=O)c2ccc(N(Cc3ccccc3Cl)S(C)(=O)=O)cc2)CC1,inactive
15,N/C(=N\OC(=O)c1cccs1)c1cccc([N+](=O)[O-])c1,"inconclusive: 1.78 µM [activator, partial curve, poor fit]"
16,O=C(NCCCN1CCN(CCCNC(=O)c2cc([N+](=O)[O-])ccc2Cl)CC1)c1cc([N+](=O)[O-])ccc1Cl,"inconclusive: 10 µM [inhibitor, partial curve, poor fit]"
17,COc1ccc2[nH]c3nc(SCC(=O)Nc4ccc5c(c4)OCO5)nnc3c2c1,"inconclusive: 22.4 µM [inhibitor, single point]"
18,COc1ccc(-c2csc3nc(-c4ccccc4)oc(=O)c23)cc1OC,"inconclusive: 35.5 µM [inhibitor, single point]"
19,O=[N+]([O-])c1ccc(N2CCN(CC(O)COc3ccccc3)CC2)cc1 (stereo not drawn),"inconclusive: 23.1 µM [inhibitor, single point]"
20,CCOCc1c(C(=O)Nc2ccc3nc(N4CCOCC4)sc3c2)oc2ccccc12,"inconclusive: 35.5 µM [inhibitor, single point]"
21,COc1cccc(NC(=O)CN(C)C(=O)c2cc(S(=O)(=O)N3CCCCC3)ccc2Cl)c1,"inconclusive: 11.2 µM [inhibitor, partial curve]"
22,O=C(Cc1ccccc1)NCCS(=O)c1ccc(Cl)cc1 (stereo not drawn),"inconclusive: 17.8 µM [activator, single point]"
23,CC(=O)Nc1cccc(Nc2nc(-c3ccccc3)nc3ccccc23)c1,"inconclusive: 7.08 µM [inhibitor, partial curve]"

row,Compound,Potency
1,Cc1ccc(Nc2n[nH]c(=S)s2)cc1F,"inconclusive: 6.31 µM [activator, full curve, poor fit]"
2,COC(=O)CCN(C1CCCCC1)S(=O)(=O)c1ccc(S(=O)(=O)NC2CCCCC2)cc1,"inconclusive: 25.9 µM [inhibitor, partial curve, poor fit]"
3,CC1CN(C(=O)COC(=O)c2cccc(S(=O)(=O)N3CCc4ccccc43)c2)CC(C)O1 (stereo not drawn),inactive
4,Cc1ccc(Cn2nnc3c(=O)[nH]c(C4CCN(S(=O)(=O)c5ccccc5)CC4)nc32)cc1,"inactive and inconclusive: 29.1 µM [inhibitor, single point]"
5,Cc1ccc(S(=O)(=O)/N=C(\N)Nc2nc(C)c3cc(C)c(C)cc3n2)cc1,"inconclusive: 29.1 µM [inhibitor, single point]"
6,CCOc1ccc(NC2=C(OC)C(=O)c3ccccc3C2=O)cc1,inactive
7,CCNC(=O)CN(c1ccc(C)cc1)S(=O)(=O)c1ccc(SC)cc1,"inconclusive: 32.6 µM [activator, single point]"
8,COc1ccc(OC)c(C2=NOC(C(=O)Nc3cccnc3)C2)c1 (stereo not drawn),inactive
9,Cc1ccc(OCC(=O)O/N=C(\N)Cc2ccc(Cl)cc2)cc1,inactive
10,CCCc1cc2c(=O)c(-c3ccccn3)coc2cc1OC,inactive
11,COc1ccc(CC(=O)NNC(=S)NC(=O)c2cccnc2)cc1,"inconclusive: 0.501 µM [activator, single point]"
12,Cc1n[nH]c(=O)nc1Nc1ccc(O)cc1,"inconclusive: 0.82 µM [activator, full curve, poor fit]"
13,Cc1ccccc1Oc1cc(-n2ncc(Cl)c(Cl)c2=O)ncn1,"inconclusive: 1.12 µM [inhibitor, full curve, poor fit]"
14,Nc1cc(OCc2ccccc2)ccc1OCc1ccccc1,"inconclusive: 11.2 µM [activator, partial curve, poor fit]"
15,CCOC(=O)c1cnc2ccc(OCC)cc2c1N1CCN(c2ccccc2F)CC1,"inconclusive: 15.8 µM [inhibitor, single point]"
16,O=C(c1ccncc1)N1N=C(c2ccc(Br)cc2)CC1c1ccccc1O (stereo not drawn),"inconclusive: 25.1 µM [inhibitor, single point]"
17,O=C(CC1C(=O)NCCN1Cc1ccc(Cl)c(F)c1)NCCc1cccnc1 (stereo not drawn),inactive
18,CN(C)c1ccc(-n2cccc2/C=C2/SC(=Nc3ccc(F)cc3)NC2=O)cc1,"inconclusive: 14.6 µM [inhibitor, partial curve, poor fit]"
19,O=C(NCCCN1CCOCC1)C1CCN(S(=O)(=O)c2ccccc2)CC1,inactive
20,COc1ccc2c(-c3ccccc3)cc(SCC(N)=O)nc2c1,active: 5.62 µM
21,CCSc1ncccc1-c1nc2ccccc2[nH]1,inactive
22,Cc1cc(C)n(CC(=O)N/N=C/c2cc([N+](=O)[O-])ccc2O)n1,"inconclusive: 11.2 µM [inhibitor, partial curve, poor fit]"
23,Cc1ccccc1Cc1c(C)nc2ncnn2c1C,"inconclusive: 3.98 µM [activator, full curve]"

row,Compound,Potency
1,C=CCOc1c(Br)cc(C2C3=C(CCCC3=O)N(C)C3=C2C(=O)CCC3)cc1OCC,"inconclusive: 0.282 µM [inhibitor, partial curve, poor fit]"
2,O=c1c(-c2ccc(Cl)cc2)cnc2n1CCS2,"inconclusive: 35.5 µM [inhibitor, single point]"
3,CCCCOc1ccc(Cc2c(Cl)nc(SC)nc2N2CCOCC2)cc1,"inconclusive: 17.8 µM [activator, single point]"
4,S=C(Nc1ccccc1)Nn1cnnc1,inactive
5,Oc1ccc(NCc2cccs2)cc1,"inconclusive: 4.47 µM [inhibitor, single point]"
6,CC(=O)NC(CC(=O)NC(C)c1ccc(Cl)cc1Cl)c1ccccc1 (stereo not drawn),inactive
7,O=C(CSc1nc2ccccc2c(=O)[nH]1)N1CCN(c2ccccc2)CC1,"inconclusive: 35.5 µM [activator, single point]"
8,Cc1ccc2nc(N/N=C/c3ccccc3F)nc(-c3ccccc3)c2c1,inactive
9,CCCC(C(=O)Nc1ccc(C)c(S(=O)(=O)N2CCOCC2)c1)c1ccccc1 (stereo not drawn),"inconclusive: 8.91 µM [inhibitor, partial curve, poor fit]"
10,O=C(NC1CCCCC1)c1ccc(CSc2nc3ccncc3n2Cc2ccccc2F)cc1,"inconclusive: 11.2 µM [activator, partial curve, poor fit]"
11,COc1ccc(NC(=O)CSc2nc(-c3cccs3)cc(C(F)(F)F)n2)c(OC)c1,inactive
12,CCCCc1ccc(NC(=O)CSc2nc(=O)n(CCN(C)C)c3c2CCC3)cc1,"inconclusive: 35.5 µM [inhibitor, single point]"
13,COc1ccc(CNCCC(c2ccc(F)cc2)c2ccc(OC)cc2)cc1 (stereo not drawn),active: 11.2 µM
14,COc1cccc(C(=O)NCCS(=O)(=O)N2CCN(C(=O)c3ccco3)CC2)c1,"inconclusive: 2.82 µM [activator, single point]"
15,Cc1ccc(C(=O)NCC(=O)Nc2ccncc2)cc1C,inactive
16,Cc1ccc(C)c(COC(=O)c2cc(S(=O)(=O)N3CCCCC3)ccc2N2CCOCC2)c1,"inconclusive: 12.6 µM [inhibitor, single point]"
17,CC(=O)N1CCC(=NNS(=O)(=O)c2ccc(C)c([N+](=O)[O-])c2)CC1,"inconclusive: 2.91 µM [inhibitor, full curve]"
18,CCOC(=O)c1sc(NC(=O)CSc2nnc(-c3ccc(OC)cc3)n2CCOC)nc1C,inactive
19,CCOc1ccc2nc(N3CCC(C(=O)Nc4cc(C)ccc4C)CC3)sc2c1,"inconclusive: 10 µM [activator, single point]"
20,CCOC(=O)c1oc2ccc(CNCCO)c(Cl)c2c1C,"inconclusive: 5.62 µM [activator, single point]"
21,CC(=O)N1N=C(c2ccccc2)CC1c1cn(Cc2ccccc2)c2ccccc12 (stereo not drawn),"inconclusive: 29.1 µM [inhibitor, single point]"
22,CC(=O)c1ccc(N2CCN(C(=O)/C=C/c3ccc(S(=O)(=O)NCc4ccco4)cc3)CC2)cc1,"inconclusive: 10 µM [inhibitor, partial curve, poor fit]"

# As entered above.
# Entry of CC(=O)N1CCC(=NNS(=O)(=O)c2ccc(C)c([N+](=O)[O-])c2)CC1 under Potency: inconclusive: 2.91 µM [inhibitor, full curve]
# Entry of CC(=O)NC(CC(=O)NC(C)c1ccc(Cl)cc1Cl)c1ccccc1 (stereo not drawn) under Potency: inactive
# Entry of Cc1ccc(C)c(COC(=O)c2cc(S(=O)(=O)N3CCCCC3)ccc2N2CCOCC2)c1 under Potency: inconclusive: 12.6 µM [inhibitor, single point]
# Entry of Oc1ccc(NCc2cccs2)cc1 under Potency: inconclusive: 4.47 µM [inhibitor, single point]

# Source: PubChem BioAssay AID540276 (National Center for Advancing Translational Sciences (NCATS), 2011)
